The source of these data is ChEMBL document CHEMBL4296182, “CO-ADD screening of NIH NCI Diversity Set V”.

Each structure is given as a SMILES string. Some of the results follow. Results with a measured potency or affinity are listed apart.

For this assay, the system named is Pseudomonas aeruginosa. Particulars: Concentration 20 uM; ASSAY_TEST Inhibition of Bacterial Growth; detection method Absorption (OD600); MEDIA CAMHB; plate type 384well; NBS; CORNING #3640; time 18 hr.
What is called Inhibition is the drop in the measured response relative to a control, in per cent. For `COc1ccc(/N=N/c2ccc(N)nc2N)cc1`, the Inhibition worked out at 0.9%.

Consider `O=C(NCc1ccco1)Nc1cccc([N+](=O)[O-])c1`, for which the Inhibition is -4.12%.

On to `O=C(O)c1cncc(Br)c1`, for which the Inhibition worked out at 3.46%.

With `Cn1c(=O)c2c(nc(Oc3ccccc3)n2C)n(C)c1=O`, the Inhibition stood at 3.64%.

For `Oc1ccc2ccc3[nH]cnc3c2c1`, the Inhibition came out at 1.65%.

As for `Cc1cc(C)c(C#N)c(Sc2nc(C)c([N+](=O)[O-])c(C)c2C#N)n1`, the Inhibition is listed as 13.43%.

As for `CC(=O)OC1COC(OC(C)=O)CO1` (stereo not given), the Inhibition is -22.89%.

On to `CC(=O)NCC(O)c1ccc([N+](=O)[O-])cc1` (stereo not given), for which the Inhibition is 18.6%.

As for `C1=Cc2ccccc2Nc2ccccc21` [IMINOSTILBENE], the Inhibition turned out to be 16.78%.

Regarding `Nc1cnc(Nc2ccc(Br)cc2)nc1N.O=S(=O)(O)O`, the Inhibition was -9.21%.

As for `OC(COc1ccccc1)CN1CCN(c2ccccc2)CC1` (stereo not given), the Inhibition worked out at 11.01%.

As for `Cc1c(C#N)c2n(c1C)CCCC(=O)N2`, the Inhibition was found to be 2.2%.

Take `CC(=O)Nc1cc(NC(C)=O)ncn1`: the Inhibition came to 20.37%.

As for `CC(=O)n1cc(C2CC(=O)OC3=C2CC(=O)C(C)(C)C3)c2ccccc21` (stereo not given), the Inhibition is reported as 20.14%.

Turning to `CCOC(=O)/C(C#N)=C\c1c[nH]c2ccccc12`, the Inhibition is -22.4%.

Consider `O/N=C(/c1ccccc1)c1ccc2c3c(cccc13)CC2`, for which the Inhibition is 11.31%.

`C=CCc1ccccc1OCC(=O)O`: the Inhibition is recorded as 16.77%.

For `CC(=O)NCC1(O)CCCC(C)C1` (stereo not given), the Inhibition was -1%.

Take `Cc1nnc2nc(-c3ccccc3)nc(-c3ccccc3)n12`: the Inhibition worked out at 5.56%.

Consider `Cn1c2c(c(=O)n(C)c1=O)NC1(N2)C(=O)Nc2ccccc21` (stereo not given), for which the Inhibition is on record as -0.84%.

`Clc1ccc(Nc2nnc(-c3ccc4c(c3)OCO4)o2)cc1`: the Inhibition is recorded as 29.93%.

Consider `CCOC(=O)CC(=O)NC(C)(C)CCCCC(C)(C)NC(=O)CC(=O)OCC`, for which the Inhibition stood at 17.16%.

In the case of `CCC(CNc1cc(OC)cc2cccnc12)NC1CCCCC1` (stereo not given), the Inhibition is on record as 14.31%.

As to `O=C(O)c1cc(O)ccc1/N=N/c1ccccc1`, the Inhibition is given as -2.55%.

As for `C=C(C)C/N=C/C1(C)CCC(C)=CO1` (stereo not given), the Inhibition is listed as -9.38%.

Turning to `CSc1ncc2ncn(C3OC(CO)C(O)C3O)c2n1` (stereo not given), the Inhibition is reported as -8.45%.

In the case of `CCOC(=O)c1c(C)nc(C)c(C(=O)OCC)c1-c1ccc(OC)cc1`, the Inhibition is reported as -13.4%.

Consider `Cc1cc(O)c(-c2cc(O)c(C)cc2O)cc1O`, for which the Inhibition was -0.36%.

With `O=C(O)/C=C\C(=O)Nc1nccs1`, the Inhibition is 14.14%.

For `O=C(C(=O)c1cccnc1)c1cccnc1`, the Inhibition stood at 14.14%.

Consider `C#Cc1cccc(NC(=O)c2ccc(Cl)cc2Cl)c1`, for which the Inhibition was 6.65%.

As to `O=C(CCl)NC1(C(=O)O)CCCC1`, the Inhibition is listed as -8.58%.

For `CCOC(=O)Nc1ccc(C(=O)/C=C/c2ccccc2)cc1`, the Inhibition turned out to be 6.46%.

In the case of `Cc1ccc(/N=N/c2ccc(N)cc2C)c(S(N)(=O)=O)c1`, the Inhibition is -1.43%.

As for `COc1ccc2c(c1)c1ccc3c(c1n2C)C(=O)C=CC3=O`, the Inhibition is recorded as -14.24%.

For `CCOC(=O)c1c(O)cc(C)nc1O`, the Inhibition was found to be 3.48%.

For `Nc1ccc(S(=O)(=O)NCC2CCCCO2)cc1` (stereo not given), the Inhibition is recorded as 9.04%.

In the case of `CCCCN1C(=O)CC2CCOC21C` (stereo not given), the Inhibition is given as 11.36%.

As to `COc1ccc(C2C3=C(COC3=O)Oc3cc4c(cc32)OCO4)cc1OC` (stereo not given), the Inhibition amounted to 18.03%.

Take `c1ccc(Sc2ncccn2)nc1`: the Inhibition came to 6.51%.

Regarding `COc1ccc(/C(C#N)=C/c2ccccn2)cc1`, the Inhibition is 3.9%.

Consider `CCOc1ccc(Nc2c3ccccc3nc3ccccc23)cc1`, for which the Inhibition was -8.45%.

As to `O=[N+]([O-])c1cccnc1Oc1cccnc1`, the Inhibition came to 15.57%.

Turning to `CCCCn1ccnc1C`, the Inhibition amounted to 2.35%.

Turning to `Cc1cc(-c2ccc(N3C(=O)CC4(CCCC4)C3=O)c(C)c2)ccc1N1C(=O)CC2(CCCC2)C1=O`, the Inhibition was found to be 12.96%.

With `c1ccc2c(c1)Oc1cccc3cccc-2c13`, the Inhibition is reported as 12.61%.

Regarding `CN(CC(=O)O)Cc1oc(CO)cc(=O)c1O`, the Inhibition was determined as 23.09%.

Consider `CC12CCC(/C(=N/c3ccc(/N=C4\C(=O)C5(C)CCC4C5(C)C)cc3)C1=O)C2(C)C`, for which the Inhibition is 20.66%.

With `O=C(O)CCC(=O)OCCN(Cc1ccc(Oc2ccc([N+](=O)[O-])cc2)cc1)C(=O)C(Cl)Cl`, the Inhibition is listed as -8.03%.

Take `N#Cc1cnn2ccn(C3OC(CO)C(O)C3O)c12` (stereo not given): the Inhibition was determined as 6%.

With `Cc1ccc(NC(=O)Nc2ccccc2C(N)=O)cc1`, the Inhibition is reported as 12.6%.

On to `CC(=O)OC1CCC2(C)C(=CCC3C2CCC2(C)C3CC3OC4(CCC(C)CN4)C(C)C32)C1` (stereo not given), for which the Inhibition turned out to be 23.32%.

As for `O=C1NCCc2c1[nH]c1ccccc21`, the Inhibition is recorded as -19.46%.

`C=C(C)c1nc(Oc2ccccc2)nc(Oc2ccccc2)n1`: the Inhibition was found to be 24.3%.

Regarding `Cn1nc(NC(=O)C(F)(F)F)c2ncc(-c3ccc(Cl)cc3)nc21`, the Inhibition is given as 13.97%.

Take `COc1cc(S(N)(=O)=O)c(OC)cc1N`: the Inhibition is 12.8%.

`CC(=O)c1c(O)c(C)c(O)c2c1OC1=CC(=O)/C(=C(/C)N)C(=O)C12C` (stereo not given): the Inhibition is 28.33%.

Regarding `CC(C)Cc1nnc(N)s1`, the Inhibition was 15.57%.

Regarding `Cc1cccc(N2CCN(CC(O)COc3ccccc3Cl)CC2)c1` (stereo not given), the Inhibition was determined as 26.87%.

Turning to `NC(=O)NC(=O)c1nccnc1C(=O)O`, the Inhibition was determined as 12.38%.

Take `CC(C)=CCC/C(C)=C\C(N)=O`: the Inhibition worked out at 17.68%.

Turning to `Cc1ccc(CC#N)c(-c2c(CC#N)ccc(C)c2C)c1C`, the Inhibition is on record as 14.89%.

Take `C=CCOc1c(CCC)cc(CCC)cc1C(N)=O`: the Inhibition worked out at 6.32%.

Regarding `CCC(CC)c1ncc[nH]1`, the Inhibition amounted to 18.15%.

Consider `O=c1cc2oc3cc(O)c(O)cc3c(-c3ccccc3O)c-2cc1O`, for which the Inhibition came to 20.52%.

As for `CC(C)(C)C(=O)/C=C/c1ccc(Oc2ccccc2)cc1`, the Inhibition came to 7.79%.

Regarding `NC(=O)Cc1ccc2c(c1)[nH]c1ccccc12`, the Inhibition is given as 12.38%.

`NC(=O)C1=CC2C3C=CC2(O)C(=O)OC3O1` (stereo not given): the Inhibition is -12.57%.

Consider `O=c1nc2onnc2c(/C=N\O)[nH]1`, for which the Inhibition was found to be 18.09%.

For `COC1OC(CO)C(N=C(C)C)C1O` (stereo not given), the Inhibition is on record as -2.66%.

Take `COc1cc2c(cc1OC)C(/C=C/c1ccco1)=NCC2.O=S(=O)(O)O`: the Inhibition worked out at 23.17%.

For `CC1(c2ccc3ccccc3c2)CCC(=O)O1` (stereo not given), the Inhibition is listed as 11.89%.

In the case of `CCC/C(C)=C/c1ccc(CC)cn1`, the Inhibition was -17.76%.

Turning to `Sc1nccn1-c1c(Cl)cccc1Cl`, the Inhibition was 4.56%.

Consider `N#CCCCCN1CCCC1`, for which the Inhibition came to 18.49%.
